Measured values published in patent US7838275B2, “Anti-HIV and anti-tumor peptides and fragments of lysozyme” (priority 2000, dated 2010).
At least one peptide structure holds a part that was inferred or is arguable (an end, a ring closure or a residue). Peptide text beside a SMILES is read from it.

Assays:
[1] = tested on: HIV-1
Experimental: Human lysozyme (2 mg) was treated with clostripain (10 units, Sigma) in 400 μl of Tris buffer, pH7.6 at 37° C. for 24 h. The digest was resolved by reversed phase chromatography on a ProRPC column (Hr5/10). […] The fractions were assayed for anti-HIV activity by p24 production in HIV-1 infected ACH2 T lymphocytes as described in Lee-Huang et al. (1999).

[2] = tested on: HIV-1Ada-M; test: Anti-HIV activity of HL9 with different strains, inhibition on p24 expression; type: cell-based; conditions: strain HIV-1Ada-M
[3] = tested on: HIV-174.MT2; test: as above; type: cell-based, HIV-1; conditions: strain HIV-174.MT2
[4] = tested on: HIV-1 302054; test: as above; type: cell-based; conditions: strain HIV-1 302054

**Q.** `CC(C)[C@H](NC(=O)[C@H](Cc1c[nH]c2ccccc12)NC(=O)[C@H](C)NC(=O)[C@@H](N)CCCNC(=N)N)C(=O)N[C@@H](C)C(=O)N[C@@H](Cc1c[nH]c2ccccc12)C(=O)N[C@@H](CCCNC(=N)N)C(=O)N[C@@H](CC(N)=O)C(=O)N[C@@H](CCCNC(=N)N)C(=O)O` [HL9, RAWVAWRNR] (H-RAWVAWRNR-OH) was tested. Which anti-HIV activity [1] did it give?
**A.** full anti-HIV activity

**Q.** What about the EC50 [2] of the same compound?
**A.** 0.058 µM

**Q.** What about the EC50 [3] of the same compound?
**A.** 0.052 µM

**Q.** What about the EC50 [4] of the same compound?
**A.** 0.068 µM
